Experimental data from PMC2908540.
No constants are given. Whether binding was seen depends on the method and setting. For part of these data: Binding seen in cells or lysates may run through a third protein. Some binding calls cover weakened binding; strength is not graded here. Sequences can lack the tags named with a protein.

T1: FLAG-CP2 (mouse) (UniProt Q9ERA0)
T1 sequence: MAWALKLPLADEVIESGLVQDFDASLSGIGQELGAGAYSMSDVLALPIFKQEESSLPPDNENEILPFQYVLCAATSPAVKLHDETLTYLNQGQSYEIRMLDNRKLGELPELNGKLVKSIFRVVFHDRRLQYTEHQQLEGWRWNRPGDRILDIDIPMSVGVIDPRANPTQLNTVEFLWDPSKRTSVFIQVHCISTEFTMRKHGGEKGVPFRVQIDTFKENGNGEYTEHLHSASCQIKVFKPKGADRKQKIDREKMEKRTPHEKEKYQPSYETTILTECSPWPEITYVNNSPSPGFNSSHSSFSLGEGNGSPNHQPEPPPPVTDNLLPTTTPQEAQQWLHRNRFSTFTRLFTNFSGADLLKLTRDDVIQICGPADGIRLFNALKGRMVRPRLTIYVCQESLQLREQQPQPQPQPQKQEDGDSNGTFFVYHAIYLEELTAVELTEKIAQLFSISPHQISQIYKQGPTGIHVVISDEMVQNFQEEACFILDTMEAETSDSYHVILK

T2: CRTR-1 (mouse) (UniProt Q3UNW5)
T2 sequence: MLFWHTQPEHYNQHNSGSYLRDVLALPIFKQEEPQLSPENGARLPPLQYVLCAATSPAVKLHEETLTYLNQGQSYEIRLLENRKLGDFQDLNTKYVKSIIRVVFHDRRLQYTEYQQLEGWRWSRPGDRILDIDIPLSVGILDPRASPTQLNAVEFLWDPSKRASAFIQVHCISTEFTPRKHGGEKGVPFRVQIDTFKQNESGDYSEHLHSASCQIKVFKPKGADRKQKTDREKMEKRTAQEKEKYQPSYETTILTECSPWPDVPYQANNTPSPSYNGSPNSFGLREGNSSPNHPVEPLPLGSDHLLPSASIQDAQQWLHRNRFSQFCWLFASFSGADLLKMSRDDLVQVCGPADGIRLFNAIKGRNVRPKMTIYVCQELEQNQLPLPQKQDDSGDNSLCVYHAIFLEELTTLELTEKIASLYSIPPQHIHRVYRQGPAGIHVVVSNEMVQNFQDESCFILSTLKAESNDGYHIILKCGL


Legend:
FLAG-CP2 (mouse) [1] = target: T1, FLAG-CP2 (mouse); experiment: native gel or EMSA; nuclear extracts of HEK293T over-expressing CRTR-1 and a CP2 family member, FAM-labelled alpha-globin CP2 response element probe, 4% native polyacrylamide gel, room temperature; heteromer seen as a complex of intermediate mobility on DNA, super-shift with anti-CRTR-1
FLAG-CP2 (mouse) [2] = target: T1, FLAG-CP2 (mouse); experiment: co-IP; HEK293T co-transfected with CRTR-1 and a FLAG-tagged CP2 family member; whole cell lysate (50 mM Tris-HCl pH 7.5, 150 mM NaCl, 10% glycerol, 1% Triton X-100, 10 mM EDTA) precipitated with anti-FLAG M2 and protein-A agarose, 4°C; blotted with anti-CRTR-1 (Figure 3A)
CRTR-1 (mouse) = target: T2, CRTR-1 (mouse); experiment: co-IP; reciprocal: HEK293T co-transfected with CRTR-1 and a FLAG-tagged CP2 family member; whole cell lysate precipitated with anti-CRTR-1 antibody and protein-A agarose, 4°C; blotted with anti-FLAG (Figure 3B)

| Binder | binding (FLAG-CP2 (mouse) [1]) | binding (FLAG-CP2 (mouse) [2]) | binding (CRTR-1 (mouse)) |
| --- | --- | --- | --- |
| CRTR-1 (protein, UniProt Q3UNW5 1-479) MLFWHTQPEHYNQHNSGSYLRDVLALPIFKQEEPQLSPENGARLPPLQYVLCAATSPAVKLHEETLTYLNQGQSYEIRLLENRKLGDFQDLNTKYVKSIIRVVFHDRRLQYTEYQQLEGWRWSRPGDRILDIDIPLSVGILDPRASPTQLNAVEFLWDPSKRASAFIQVHCISTEFTPRKHGGEKGVPFRVQIDTFKQNESGDYSEHLHSASCQIKVFKPKGADRKQKTDREKMEKRTAQEKEKYQPSYETTILTECSPWPDVPYQANNTPSPSYNGSPNSFGLREGNSSPNHPVEPLPLGSDHLLPSASIQDAQQWLHRNRFSQFCWLFASFSGADLLKMSRDDLVQVCGPADGIRLFNAIKGRNVRPKMTIYVCQELEQNQLPLPQKQDDSGDNSLCVYHAIFLEELTTLELTEKIASLYSIPPQHIHRVYRQGPAGIHVVVSNEMVQNFQDESCFILSTLKAESNDGYHIILKCGL | binds | binds | – |
| FLAG-CP2 (protein, UniProt Q9ERA0 1-502) MAWALKLPLADEVIESGLVQDFDASLSGIGQELGAGAYSMSDVLALPIFKQEESSLPPDNENEILPFQYVLCAATSPAVKLHDETLTYLNQGQSYEIRMLDNRKLGELPELNGKLVKSIFRVVFHDRRLQYTEHQQLEGWRWNRPGDRILDIDIPMSVGVIDPRANPTQLNTVEFLWDPSKRTSVFIQVHCISTEFTMRKHGGEKGVPFRVQIDTFKENGNGEYTEHLHSASCQIKVFKPKGADRKQKIDREKMEKRTPHEKEKYQPSYETTILTECSPWPEITYVNNSPSPGFNSSHSSFSLGEGNGSPNHQPEPPPPVTDNLLPTTTPQEAQQWLHRNRFSTFTRLFTNFSGADLLKLTRDDVIQICGPADGIRLFNALKGRMVRPRLTIYVCQESLQLREQQPQPQPQPQKQEDGDSNGTFFVYHAIYLEELTAVELTEKIAQLFSISPHQISQIYKQGPTGIHVVISDEMVQNFQEEACFILDTMEAETSDSYHVILK | – | – | binds |
